Laboratory results published in publication PMC4552634, “A New Set of Chemical Starting Points with Plasmodium falciparum Transmission-Blocking Potential for Antimalarial Drug Discovery” (PLoS ONE, 2015).

Test system: HepG2 cells
Assay: Cytotoxicity in HepG2 cells (intracellular ATP, ATPlite, 48 h)
Type: cell-based, human
Details: selectivity ratio HepG2 vs Pf gametocytes

Row | SMILES | Ratio IC50 HepG2/IC50 Pf gametocytes
1 | Cc1[nH]c2ccccc2c1C(=O)C(C)Sc1nnc(-c2ccccc2Br)[nH]1 (centres unmarked) [TCMDC-125114] | 74
2 | CC1CCCCN1CCCNc1nc(NCc2ccccc2)c2ccccc2n1 (centres unmarked) [TCMDC-137771] | 143
3 | CCCCN1CCN(CCCCNc2c3ccccc3nc3ccccc23)CC1 [TCMDC-137569] | 11
4 | COc1ccc2nc3cc(Cl)ccc3c(NCCN3CCN(C)CC3)c2c1 [TCMDC-137476] | 10
5 | C=CCN(C(=O)c1ccc(Cl)c([N+](=O)[O-])c1)c1nc(-c2ccccc2)cs1 [TCMDC-124436] | >237
6 | FC(F)(F)c1ccc2[nH]c(-c3ccc(-c4cccc(CNCCN5CCNCC5)c4)cc3)nc2c1 [TCMDC-132864] | 16
7 | O=C(Nc1nc(-c2ccccn2)cc2ccccc12)c1cccc(Cl)c1 [TCMDC-123886] | >50
8 | COc1cccc(Nc2c(C(N)=O)cnc3ccc(-c4ccc([S+](C)[O-])cc4)cc23)c1 (centres unmarked) [TCMDC-135184] | >18
9 | CCc1nn2c(Nc3ccncc3)cc(C)nc2c1-c1ccccc1 [TCMDC-124917] | >13
10 | CC(=NNC(=S)NCCc1ccccn1)c1ccccn1 [TCMDC-137895] | >17
11 | COc1cccc(CC(=O)N2CCC(n3c(C)nc4ccc(C)cc43)CC2)c1 [TCMDC-124791] | >53
12 | c1cc(CNCCN2CCNCC2)cc(-c2cccc(-c3nc4ccccc4[nH]3)c2)c1 [TCMDC-132859] | 27
13 | Fc1ccc(NC(=S)NN=Cc2ccccn2)cc1 [TCMDC-125521] | 195
14 | COc1ccc(COc2cc(NCCCN)nc3ccccc23)cc1 [TCMDC-139286] | 25
15 | CC(C)(C)c1ccc(CN2CCC(CNC(=O)c3cc(-c4cccc(Cl)c4)cs3)C2)cc1 (centres unmarked) [TCMDC-134446] | 19
16 | c1cc(CN2CCC(CCN3CCCCC3)CC2)cc(-c2cccc(-c3nc4ccccc4[nH]3)c2)c1 [TCMDC-133920] | 45
17 | Cc1sc2ncnc(Sc3nnc(N)s3)c2c1C [TCMDC-124542] | >83
18 | CCOc1ccc2nc3cc(NC(=O)c4ccco4)ccc3c(N)c2c1 [TCMDC-125004] | 56
19 | Fc1ccc2[nH]c(-c3ccc(-c4ccc(CNCCN5CCNCC5)cc4)s3)nc2c1 [TCMDC-132869] | >47
20 | COc1ccc(NC(=O)C2c3ccccc3C(=O)N(CC(C)C)C2c2cccs2)cc1OC (centres unmarked) [TCMDC-125289] | >58
21 | CC(C)c1ccc(NC(=S)NN=Cc2ccccn2)cc1 [TCMDC-125520] | >1306
22 | Cc1cc(Nc2ccncc2)n2nc(C)c(-c3ccc(Cl)cc3)c2n1 [TCMDC-124478] | >55
23 | COc1cc2nc(N3CCN(c4nc(N)c5cc(OC)c(OC)cc5n4)CC3)nc(N)c2cc1OC [TCMDC-123865] | >96
24 | Cc1cc(Nc2ccncc2)n2nc(C)c(-c3ccccc3Cl)c2n1 [TCMDC-124918] | >13

Row | SMILES | Ratio IC50 HepG2/IC50 Pf gametocytes
25 | Cn1nc(C(F)(F)F)c(-c2ccc(Br)cc2)c1NC(=O)Cc1ccccc1F [TCMDC-123792] | >14
26 | c1ccc2sc(Sc3ncnc4sccc34)nc2c1 [TCMDC-125539] | >50
27 | CCC1=C(C[C@H]2NCCc3cc(OC)c(OC)cc32)C[C@H]2c3cc(OC)c(OC)cc3CCN2C1 [TCMDC-131825] | >83
28 | CCN(CC)Cc1cc(Nc2c3ccc(Cl)cc3nc3cccc(OC)c23)ccc1O [TCMDC-139222] | >25
29 | Nc1cc(C=Cc2ccc([N+](=O)[O-])o2)nc2ccccc12 [TCMDC-142295] | 58
30 | CN(C)CCNC(=O)c1ccc(-c2cnc3ccc(NCc4ccc(Cl)c(Cl)c4)nn23)cc1 [TCMDC-136678] | 50
31 | C/C=C/C=C/C1=NCCc2cc(OCCC)ccc21 [TCMDC-137442] | 25
32 | COc1ccc(Nc2nccc(-c3ccc4ccnc(NCCCCN)c4c3)n2)cc1 [TCMDC-136642] | >77
33 | O=C(c1ccc([N+](=O)[O-])o1)N1CCC(Cc2ccc(C(F)(F)F)cc2)CC1 [TCMDC-124805] | 55
34 | Cc1n[nH]c2ccc(-c3ccc4nccc(N5CCC(N)CC5)c4c3)cc12 [TCMDC-134315] | 30
35 | CS(=O)(=O)c1cccc(-c2cnc3[nH]cc(-c4cccc(CCN)c4)c3c2)c1 [TCMDC-136307] | >53
36 | NC1CCN(Cc2ccc(-c3ccc(-c4nc5cc(F)ccc5[nH]4)cc3)cc2)C1 (centres unmarked) [TCMDC-133872] | 9
37 | Fc1ccc2[nH]c(-c3cccc(-c4cccc(CNCCN5CCNCC5)c4)c3)nc2c1 [TCMDC-132860] | 27
38 | O=c1c(Br)ccccc1Br [TCMDC-142246] | 61
39 | COc1cccc(NC(=O)[C@H](C(C)C)n2c(=O)[nH]c3ccccc3c2=O)c1 [TCMDC-125133] | >93
40 | N=C(NCCCc1ccccc1)c1cccc(C(=N)NCCCc2ccccc2)n1 [TCMDC-137453] | 41
41 | COCCCNC(=S)NN=C(C)c1ccccn1 [TCMDC-137907] | 106
42 | CCn1ncc2c(NC3CCOCC3)c(CNC(=O)c3ccnn3C)c(C)nc21 [TCMDC-136560] | >15
43 | COc1cc2c(c(Cl)c1OC)CCN(C(=O)C(F)(F)F)CC2c1ccccc1 (centres unmarked) [TCMDC-132071] | >13
44 | Fc1ccc2[nH]c(-c3cccc(-c4ccc(CNCCN5CCNCC5)cc4)c3)nc2c1 [TCMDC-132863] | 17
45 | FC(F)(F)c1ccc2[nH]c(-c3cccc(-c4ccc(CNCCN5CCNCC5)cc4)c3)nc2c1 [TCMDC-132872] | 15
46 | Cc1ccc(C)c(CC(=O)N2CCC(n3c(C)nc4ccc(F)cc43)CC2)c1 [TCMDC-124790] | >27
47 | Cc1cccc2nc(-c3ccc(-c4cccc(CNCCN5CCNCC5)c4)cc3)[nH]c12 [TCMDC-132867] | 16
